Assay: Triangle test for detection of 1,3-propanediol flavor (Example 6)
Details: for tasters identifying 1,3-propanediol in a triangle test: four tasters

Structure (SMILES): OCCCO [1,3-propanediol]
- tasters identifying 1,3-propanediol in a triangle test (Samples A and B: water vs 0.14 grams 1,3-propanediol in 99.86 grams water): Only one of the four tasters could identify
- tasters identifying 1,3-propanediol in a triangle test (Samples C and D: 10 grams sucrose in water without/with 0.14 grams 1,3-propanediol): only one taster identifying
- detectability of flavor at low levels (water or sucrose sweetened beverages): generally not detectable at low levels

From patent US9883691B2, “Food and beverage products containing 1,3-propanediol and methods of modifying flavor release using 1,3-propanediol” (Kraft Foods Group Brands LLC, priority 2012, dated 2018)
